About 7,700 (2.3%) of roughly 330,000 compounds were called active. The inconclusive results got no clear call from the source; some entries with a clear call stand among them for comparison. Calls come from the whole dose curve; as a rule, active = well fitted inhibition curve with a large enough effect; inconclusive = small, poorly fitted or top-dose-only effect, or effect the other way; inactive = flat fitted curve, though single readings scatter. A potency beside an inconclusive call is a rough fit, not a confirmed value.
test: qHTS screen for small molecules that inhibit ELG1-dependent DNA repair in human embryonic kidney (HEK293T) cells expressing luciferase-tagged ELG1; details: HEK293T ELG1-luciferase reporter, luminescence, 16 h, DNA damage induced by 5-fluorouridine; activity change, negative = inhibition: at 46.1 µM (top of the series); note: nearly all actives have a fitted effect of over 55% in size
Outline: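 Reporter activity after DNA damage by 5-fluorouridine is monitored. Compound-treated cells incubate 16 hr at 37 °C, then ONE-Glo is added for 30 min before luminescence reading.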
% is set by controls: 0 for no effect and ±100 for the full control effect; potency is the fitted concentration of half-maximal effect.

Q: For `O=C(CCC(=O)Nc1ccccc1)N/N=C/c1ccc2c(c1)OCO2`, which Potency is on record?
A: inconclusive: 29.1 µM [activator, single point]

Q: For `CC1CCCN(C(=O)COC(=O)CNS(=O)(=O)c2ccc3ccccc3c2)C1` (centres undefined), which Potency is on record?
A: inconclusive: 3.66 µM [activator, partial curve, poor fit]

Q: For `CCC1(C(=O)c2ccccc2)C(c2cccc([N+](=O)[O-])c2)C1(C(=O)OC)C(=O)OC` (centres undefined), which Potency is on record?
A: inconclusive: 23.1 µM [inhibitor, partial curve]

Q: Which Potency does the source give for `CCN(CC)C(=O)CCn1nc(-c2ccc(C)cc2)c2ccccc2c1=O` here?
A: inconclusive: 4.61 µM [inhibitor, partial curve, poor fit]

Q: For `S=c1[nH]nc(-c2ccncc2)n1Cc1ccco1`, which “activity change, negative = inhibition” value is on record?
A: inactive: 13.1%

Q: For `COc1ccc(CCNC(=O)COc2ccc(N(C)S(=O)(=O)c3ccc(C)cc3)cc2)cc1`, which Potency is on record?
A: inconclusive: 29.1 µM [inhibitor, single point]

Q: With `COc1cc(/C=N\NC(=O)CNC(=O)c2cccc([N+](=O)[O-])c2)ccc1O` as the compound, how does the “activity change, negative = inhibition” value read?
A: inactive: -5.46%

Q: Which “activity change, negative = inhibition” value does the source give for `Cc1cc(C)n(C(=O)COc2ccc([N+](=O)[O-])cc2)n1` here?
A: inactive: 6.81%

Q: With `O=C1N=C(N2CCOCC2)S/C1=C\C=C/c1ccccc1` as the compound, how does the Potency read?
A: inconclusive: 14.6 µM [activator, partial curve]

Q: With `O=C(C1CC1c1ccccc1)N1CCN(c2cccc(Cl)c2)CC1` (centres undefined) as the compound, how does the Potency read?
A: inconclusive: 0.231 µM [inhibitor, partial curve, poor fit]

Q: For `O=C(/C=C/c1cccs1)Nc1nncs1`, which Potency is on record?
A: inconclusive: 25.9 µM [activator, partial curve]

Q: With `Cc1ccc(S(=O)(=O)NC(C)C(=O)NC(C)c2cccs2)cc1` (centres undefined) as the compound, how does the “activity change, negative = inhibition” value read?
A: inactive: 8.07%

Q: With `O=C1[C@@H](Oc2ccccc2)[C@@H](c2cnc3ccccc3c2)N1c1ccccc1` as the compound, how does the Potency read?
A: active: 16.4 µM

Q: Which Potency does the source give for `O=C(Nc1ccc(CN2CCOCC2)cc1)c1cccc(-c2cc3ccccc3oc2=O)c1` here?
A: inconclusive: 18.3 µM [inhibitor, single point]

Q: Which “activity change, negative = inhibition” value does the source give for `CCc1cc2ccc(C)cc2nc1SCC(=O)NC1CCCC1` here?
A: inactive: 10.2%

Q: With `CCO[C@H]1OC(C(=O)N2CCN(Cc3ccccc3)CC2)=C[C@@H](c2ccc(C(F)(F)F)cc2)[C@@H]1CCCO` as the compound, how does the “activity change, negative = inhibition” value read?
A: inactive: -16%

Q: For `O=c1cc(CSc2nnc(COc3cccc4ccccc34)o2)c2ccccc2[nH]1`, which Potency is on record?
A: inconclusive: 18.3 µM [inhibitor, partial curve, poor fit]

Q: For `CNc1nc(-c2ccc(Cl)cc2)cs1`, which Potency is on record?
A: inconclusive: 8.91 µM [activator, partial curve]

Q: With `COCC(C)n1c(SCC(=O)NCCC2=CCCCC2)nc2ccccc2c1=O` (centres undefined) as the compound, how does the Potency read?
A: inconclusive: 23.1 µM [inhibitor, single point]
